# From PubChem BioAssay AID1347426 (Functional Genomics Laboratory (NCATS/FGL), 2020)
# The campaign covered roughly 31,000 sequences. About 1,400 (4.5%) were called active.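 Rule for the calls: active = median seed-adjusted z-score above 1 or below -1; inactive = the rest.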 Some of the results follow.
# Experiment: Novel Modifiers of Survival Motor Neuron (SMN) Protein: Gene Identification via Genome-wide siRNA Screen;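 note: luminescence tracks full-length SMN protein made from the SMN2 reporter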
# Details: HEK293T SMN2-luciferase reporter, siRNA knockdown, 72 h; actives lie on both sides
# Summary of the method: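 Steps: spot 1 pmol siRNA, add Lipofectamine RNAiMax in serum-free DMEM, seed HEK293T SMN2–luciferase reporter cells; incubate 72 h at 37 °C; add ONE-Glo; normalize luminescence to control siRNA, log10, MAD. Candidates: |MAD| > 1.0.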
row,Sequence,median seed-adjusted z-score
1,CAACCUUUCACUGCAAUGATT against NAT8,inactive: -0.228
2,ACGCUUCAGUGGUACCUCUTT against SIGLEC1,inactive: -0.153
3,GGUUGACCAAGAUACAGCATT against LONRF1,inactive: 0.743
4,GCUGUUACCUCGACGAGUATT against TSC2,active: 1.11
5,GCUCCAGUCUCACUAAACATT against ZNF552,inactive: 0.437
6,GACCAGAUAUUUGCCUAUUTT against CYFIP1,inactive: -0.377
7,GAGAUUCUCUCAGCCUAAATT against ADAR,inactive: 0.267
8,GAAUUAGAGUUGAGGGUAATT against MYBPC1,inactive: 0.295
9,GCUUAGCAAUGGAUAUGCATT against DERL1,inactive: 0.22
10,GUCAGUUAGUGACAGCUAATT against ST8SIA1,inactive: -0.25
11,GGAGGACAUCGACCAGAUATT against APBA1,inactive: 0.305
12,CAUUAUUUCGCGAAUCCAATT against ADAM15,inactive: -0.682
13,GAGCGCCUCUAGAAUGUAATT against HMX1,active: 1.3
14,CAUACACUUGUAUCGCAAATT against FSTL5,inactive: -0.881
15,CCACGAAGAUCUCAUCAUATT against RNF12,inactive: 0.29
16,GAAUUAGACCACAACAUCATT against SMC2,inactive: -0.052
17,GGAGGAUCAUUGGAUCUCATT against CFD,inactive: -0.0604
18,CAAUGUUACCAAAACCGAATT against ACVR1C,inactive: -0.0005
19,GGCAGGAUCCUGUUACAUATT against RFC1,inactive: 0
20,GGCUCAUUCUACUCGAAGATT against ADAMTS12,inactive: -0.0721
21,GGAUAUCUGGUACUAAAAATT against S100A14,inactive: 0.0172
22,CCACCUUGUGAAAUCCUAUTT against ESD,inactive: -0.196
23,CGGCUACAAUACUAAUCGATT against REST,inactive: 0.416

row,Sequence,median seed-adjusted z-score
1,GGAUCAAGUGUGAUCAGUATT against PTPRS,inactive: -0.433
2,ACCUGAUCGUGGAGAGUGATT against TMCO6,inactive: -0.227
3,GGCAAUUAAUGAAGUCUUUTT against SWAP70,inactive: -0.704
4,GGAGACUUCUUACCCACCATT against PSMD4,active: 1.46
5,GGAAGUAAUGAAAACUCAATT against PNLIPRP2,inactive: -0.022
6,GCAAAAUGGAACUCCCAUATT against BTNL8,inactive: 0.0508
7,CAAUCCAUACUGGUAUAAATT against ZNF540,inactive: -0.439
8,CAAAGUUGGUUUAUAGUAUTT against CDH8,inactive: 0.169
9,CAUCGUGGAUCUGAUUAAATT against GSTT1,inactive: 0.0781
10,GCAUCCUAGUGAGAAAGGATT against GZMH,inactive: 0.946
11,GGCUUGCGGUGUGGACUAUTT against ARRB1,inactive: -0.205
12,AGUGGAAACUGCUCACAGATT against SOX21,inactive: -0.412
13,GCUGCGAGAUGAGAACGGATT against NFE2L1,inactive: 0.689
14,CGACAGAAAUCCUGAAUGATT against PBX1,inactive: -0.199
15,GAACGACAGAUUAGAAUAATT against GDAP2,inactive: 0.199
16,GUGCUGCAAUUGAGGGCUATT against HSD11B2,inactive: 0.215
17,GGAGAGUAGUCUAGACCAATT against KRT5,inactive: -0.325
18,UCACCCAGAUAAUCAUUAATT against SFTPA2B,inactive: -0.016
19,GGUCGUGAGCGAUAAGACATT against ABCF2,inactive: 0.0696
20,GGUUUAACAUCUUCACGCUTT against KIR2DL4,inactive: -0.271
21,GAAUGUUCUUCUCUGCUAATT against RGS1,inactive: 0.329
22,GGCAUUAUCCUUUUCCUGUTT against SLC38A3,inactive: -0.177
23,UCGAUAUUCUAAGAUCACATT against UBE2D3,active: 1.62

row,Sequence,median seed-adjusted z-score
1,CGCUCGAACUUUCCACUAUTT against HCN1,inactive: -0.107
2,AGAUUUUGAAGGCCGAGUATT against CAMK1,inactive: 0.325
3,AGUCAACCGUGUUACCAUATT against PABPN1,inactive: -0.757
4,ACUUCUUCUUAAUAGCUGUTT against PTGER3,inactive: -0.321
5,GCGCGCUACUUUGGGAUAATT against POLR2E,active: -1.25
6,CAUUCGGACUCUACAUAUATT against TRMT11,inactive: -0.707
7,GUACCUGCGGGAUUACUCATT against CCT7,inactive: -0.246
8,GGGACUUAAUUUGAGCAUATT against SUPV3L1,inactive: -0.169
9,GUACCUCCAUAAUGAGUAATT against CCT8,inactive: -0.161
10,GACCCACGCAAAGAACUUATT against ZNF346,inactive: 0.00564
11,GUACUGAAAAUCGCUCUGATT against KCTD21,inactive: 0.0236
12,CUAGUGGUCAGAUAUCUUATT against ZNF620,inactive: 0.172
13,CCAUAUUAAUGUCCAUGAUTT against PCDHB7,inactive: 0.365
14,AGAAUCCCACUGAUGCAUATT against MRLC2,inactive: -0.492
15,GCCUUACAAUAGCAUGUAUTT against SLU7,inactive: -0.97
16,AGAUGUACAGGAAUCGCUATT against AKR7A3,inactive: 0.455
17,ACAUCUCCAUUGUCAAGCATT against GIT1,inactive: -0.307
18,GAUCUAGAGAAAUCGCUUUTT against CEP135,inactive: -0.2
19,GAAUGGUCCUAAAACACCATT against NFE2L2,inactive: -0.596
20,GGAACUUGCUCGACUGAGATT against ZRSR2,inactive: 0.0222
21,CAGCCGUAGUGAUUAUUCUTT against HTR2A,inactive: 0.0665
22,ACAAAGCGGUGGAUCCCAUTT against CNTNAP3,inactive: 0.15

# 2 entries picked at random from the list so far:
row,Sequence,median seed-adjusted z-score
4,ACUUCUUCUUAAUAGCUGUTT against PTGER3,inactive: -0.321
22,CCACCUUGUGAAAUCCUAUTT against ESD,inactive: -0.196
